Results: PubChem BioAssay AID540256 (National Center for Advancing Translational Sciences (NCATS), 2011)
Hit rate of the full screen: of about 300,000 compounds, about 3,700 (1.2%) were called active. The shares of active, inactive and inconclusive entries below differ from those in the screen. Calls come from the whole dose curve; tested in HEK293 cells. Potencies beside an inconclusive call are fits to weak or partial responses and may not hold up.

test: qHTS for Inhibitors of binding or entry into cells for Lassa Virus; conditions: Lassa virus pseudotype entry inhibition, cell reporter; series mostly up to 37.9 µM; note: nearly all actives have a fitted effect of over 50% in size
Potency is the fitted concentration of half-maximal effect.

| Compound | Potency |
| --- | --- |
| Cc1oc2ncnc(N3CCCCC3)c2c1C(=O)N1CCN(c2cccc(Cl)c2)CC1 | inactive |
| Cc1ccc(C(=O)C2C(c3ccc(-c4ccccc4[N+](=O)[O-])o3)NC(=O)NC2(O)C(F)(F)F)cc1 (configuration not stated) | inconclusive: 35.5 µM [inhibitor, single point] |
| Cc1ccnc(NC(=O)c2ccc(OCC3CCCO3)cc2)c1 (configuration not stated) | active: 6.31 µM |
| O=S(=O)(c1ccc(-c2nnco2)cc1)N1CCCCC1 | inconclusive: 3.16 µM [inhibitor, single point] |
| CCOc1ccc(CN2C(=O)c3ccccc3Sc3ccc(C(=O)O)cc32)cc1 | inconclusive: 3.98 µM [inhibitor, partial curve, poor fit] |
| O=c1[nH]c(O)c(N=Nc2ccc3c(c2)OCCO3)c(=O)[nH]1 | inconclusive: 15.8 µM [inhibitor, partial curve, poor fit] |
| CSc1ccc(/C=C/c2nc3ccccc3n2S(=O)(=O)c2cccc(Cl)c2)cc1 | inconclusive: 35.5 µM [inhibitor, single point] |
| CCC(CC)C(=O)Nc1nnc(SCc2cc(=O)n3cccc(C)c3n2)s1 | inactive |
| COc1ccc(CNC(=O)C2CCN(S(=O)(=O)c3ccc4c(c3)CC(C)N4C(=O)C3CC3)CC2)cc1 (configuration not stated) | inconclusive: 35.5 µM [inhibitor, single point] |
| COc1cc(NC(=O)CCc2c(C)nc3cc(-c4ccccc4)nn3c2C)cc(OC)c1OC | inactive |
| O=C(CN1CC[n+]2c(-c3cccs3)csc21)c1ccc(Br)cc1 | inactive |
| CCCCn1c(N)c(S(=O)(=O)c2ccc(C)cc2)c2nc3ccccc3nc21 | inconclusive: 29.1 µM [inhibitor, single point] |
| COc1cc(-c2ccccc2)nc(N)n1 | active: 11.6 µM |
| CS(=O)(=O)N1CCN(c2ccc([N+](=O)[O-])cc2F)CC1 | inconclusive: 14.1 µM [activator, partial curve] |
| Cc1cccc(NC2=C(Cl)C(=O)OC2OC(=O)c2ccco2)c1 (configuration not stated) | inactive |
| CCCN(CCC)S(=O)(=O)c1ccc(C(=O)Nc2sc3c(c2C(=O)OC)CCN(CC)C3)cc1 | inconclusive: 6.31 µM [activator, single point] |
| CCC(C)c1ccc(NC(=O)c2cccs2)cc1 (configuration not stated) | inconclusive: 11.6 µM [inhibitor, single point] |
| COc1ccc(/C=C/S(=O)(=O)NCc2ccccc2)cc1OC | inconclusive: 20 µM [inhibitor, partial curve, poor fit] |
| Cc1ccc(Nc2nc(N)c([N+](=O)[O-])c(NCCO)n2)cc1C | inactive |
| COCCn1c(C)cc(C(=O)COC(=O)c2cncc(Br)c2)c1C | inactive |
| O=C(Nc1cccc(C(F)(F)F)c1)C1CCCN1S(=O)(=O)c1cccc2nsnc12 (configuration not stated) | inconclusive: 2.51 µM [activator, partial curve, poor fit] |
| CN=c1scc(C)n1/N=C/c1ccc2c(c1)OCO2 | active: 3.55 µM |
| Cc1cc(Nc2ccc(Cl)cc2)nc(NCc2ccccc2)n1 | inconclusive: 20.6 µM [inhibitor, single point] |

A second format for part of the listing above.
CCC(CC)C(=O)Nc1nnc(SCc2cc(=O)n3cccc(C)c3n2)s1
  Potency: inactive
COc1ccc(CNC(=O)C2CCN(S(=O)(=O)c3ccc4c(c3)CC(C)N4C(=O)C3CC3)CC2)cc1 (configuration not stated)
  Potency: inconclusive: 35.5 µM [inhibitor, single point]

Next compounds:

| Compound | Potency |
| --- | --- |
| CC#CCCCC(=O)Nc1cccc(C(=O)O)c1 | inactive |
| COc1cc2c(cc1OC)[C@@H]1O[C@](c3ccsc3)(C2)OC2=C1C(=O)OC1(CCCCC1)C2 | inconclusive: 0.376 µM [inhibitor, partial curve, poor fit] |
| Cc1ccc(NC(=O)c2ccc(CSc3nnc(C)s3)cc2)c(C)c1 | inactive |
| CC1CCN(C(=O)COC(=O)c2ccc3c(c2)OCO3)CC1 | inconclusive: 1.26 µM [inhibitor, single point] |
| CCOc1ccc(N2Cc3ccccc3C2)cc1 | inactive |
| Cc1ccc(Cl)cc1Nc1nn2c(=O)c3ccc(C(=O)N4CCCC(C)C4)cc3nc2s1 (configuration not stated) | inactive |
| COc1cccc(OC)c1C1=NCC(=O)Nc2c1oc1ccc(Br)cc21 | inconclusive: 1.16 µM [inhibitor, full curve] |
| CC[C@@H](C)[C@H](NC(=O)C1CCN(C(=O)[C@@H](NS(=O)(=O)c2ccc(C)cc2)C(C)C)CC1)C(=O)O | inconclusive: 3.55 µM [activator, partial curve, poor fit] |
| COc1cc(C)c(Br)cc1S(=O)(=O)NCc1ccncc1 | inconclusive: 3.16 µM [inhibitor, single point] |
| COc1cc2c(cc1OC)CN(c1ccc(-c3ccccc3OC)nn1)CC2 | inconclusive: 17.8 µM [inhibitor, single point] |
| O=C(Nc1cccc(F)c1)C1CCN(S(=O)(=O)c2cccc3nsnc23)CC1 | inconclusive: 5.62 µM [activator, single point] |
| COc1ccc(CCNS(=O)(=O)c2cc(-c3cc(C)no3)ccc2C)cc1OC | inactive |
| CCCc1nn(C)c(C(=O)Nc2ccc(C)c(C)c2)c1Cl | inactive |
| Cc1ccc(OCCCCNC2CCCC(C)C2C)c(C)c1 (configuration not stated) | inconclusive: 35.5 µM [inhibitor, single point] |
| Cc1ccc(Cl)cc1NC(=S)N(Cc1ccco1)C(C)c1cccs1 (configuration not stated) | inconclusive: 15.8 µM [inhibitor, partial curve, poor fit] |
| COc1ccc(OC)c(NS(=O)(=O)c2ccc(-c3cc(C)no3)s2)c1 | inconclusive: 1.58 µM [inhibitor, partial curve, poor fit] |
| COc1ccc(CNC(=O)CCCn2nc(C)c3c(C)n(-c4ccccc4)nc3c2=O)cc1 | inconclusive: 20 µM [activator, single point] |
| Cc1cccc(C(=O)Nc2nnc(S(=O)(=O)N(C)c3ccccc3C)s2)c1 | inconclusive: 35.5 µM [activator, single point] |
| Cc1ccc(-n2c(-c3ccco3)nc3c(cnn3-c3ccccc3Cl)c2=O)cc1 | inactive |
| CC12CC3CC(C1)CC(C(=O)NNC(=O)c1ccncc1)(C3)C2 | inconclusive: 0.562 µM [inhibitor, full curve, poor fit] |
| COc1ccc(/C=N\NC(=O)c2c(C)nc3ccc(Br)cn23)cc1 | inconclusive: 1.84 µM [inhibitor, full curve, poor fit] |
| COc1ccc(NC(=O)CSc2nc(C)c3c(c2C#N)CCCC3)cc1 | inactive |
| N#C/C(=C\C1=C(N2CCOCC2)C(=C\c2ccccc2)/CC1)C(=O)Nc1ccccc1F | inconclusive: 29.1 µM [inhibitor, single point] |

A draw from above in order of count of non-hydrogen atoms, descending.

| Compound | Potency |
| --- | --- |
| CC[C@@H](C)[C@H](NC(=O)C1CCN(C(=O)[C@@H](NS(=O)(=O)c2ccc(C)cc2)C(C)C)CC1)C(=O)O | inconclusive: 3.55 µM [activator, partial curve, poor fit] |
| COc1ccc(CNC(=O)CCCn2nc(C)c3c(C)n(-c4ccccc4)nc3c2=O)cc1 | inconclusive: 20 µM [activator, single point] |
| COc1cc2c(cc1OC)[C@@H]1O[C@](c3ccsc3)(C2)OC2=C1C(=O)OC1(CCCCC1)C2 | inconclusive: 0.376 µM [inhibitor, partial curve, poor fit] |
| COc1ccc(CCNS(=O)(=O)c2cc(-c3cc(C)no3)ccc2C)cc1OC | inactive |
| COc1cc2c(cc1OC)CN(c1ccc(-c3ccccc3OC)nn1)CC2 | inconclusive: 17.8 µM [inhibitor, single point] |
| Cc1cccc(C(=O)Nc2nnc(S(=O)(=O)N(C)c3ccccc3C)s2)c1 | inconclusive: 35.5 µM [activator, single point] |
| COc1cccc(OC)c1C1=NCC(=O)Nc2c1oc1ccc(Br)cc21 | inconclusive: 1.16 µM [inhibitor, full curve] |
| COc1ccc(OC)c(NS(=O)(=O)c2ccc(-c3cc(C)no3)s2)c1 | inconclusive: 1.58 µM [inhibitor, partial curve, poor fit] |
| COc1ccc(/C=N\NC(=O)c2c(C)nc3ccc(Br)cn23)cc1 | inconclusive: 1.84 µM [inhibitor, full curve, poor fit] |
| CC12CC3CC(C1)CC(C(=O)NNC(=O)c1ccncc1)(C3)C2 | inconclusive: 0.562 µM [inhibitor, full curve, poor fit] |
| Cc1ccc(OCCCCNC2CCCC(C)C2C)c(C)c1 (configuration not stated) | inconclusive: 35.5 µM [inhibitor, single point] |
| CCCc1nn(C)c(C(=O)Nc2ccc(C)c(C)c2)c1Cl | inactive |
| CCOc1ccc(N2Cc3ccccc3C2)cc1 | inactive |

(more compounds)

| Compound | Potency |
| --- | --- |
| CCN1CCN(CCNC(=O)c2ccc3c(c2)N(Cc2ccc(F)cc2)C(=O)/C(=C/c2ccccc2)S3)CC1 | inconclusive: 35.5 µM [inhibitor, single point] |
| CC1(C)NC(=O)N(c2ccc([N+](=O)[O-])c(C(F)(F)F)c2)C1=O | inconclusive: 10.3 µM [inhibitor, partial curve, poor fit] |
| O=C([C@H](Cc1ccccc1)NS(=O)(=O)c1ccc(Cl)cc1)N1CC[C@@]2(O)CCCC[C@H]2C1 | inconclusive: 17.8 µM [inhibitor, single point] |
| CCOC(=O)c1cc(OC(=O)c2ccccc2C)n(-c2ccccc2)n1 | inconclusive: 6.31 µM [inhibitor, single point] |
| CCC1C/C(=C\c2cccnc2)C(=O)/C(=C/c2cccnc2)C1 (configuration not stated) | active: 4.47 µM |
| COc1cc(C(=O)c2nccc3cc(OC)c(OC)cc23)c([N+](=O)[O-])cc1OC | inactive |
| Cc1ccc2nc(NS(=O)(=O)c3cn(C)nc3C)sc2c1 | inactive |
| COc1ccc(C(=O)COC(=O)C(Cc2c[nH]c3ccccc23)NC(=O)c2ccc(C(C)(C)C)cc2)cc1 (configuration not stated) | active: 1.26 µM |
| COc1ccc(CCNC(=O)C(=O)NCC(c2cccs2)S(=O)(=O)c2ccc(C)cc2)cc1 (configuration not stated) | inconclusive: 0.562 µM [inhibitor, full curve, poor fit] |
| O=C(CNC(=O)c1ccc(Cl)c([N+](=O)[O-])c1)OC1CCCCC1=O (configuration not stated) | inactive |
| CN(C(=O)CSc1nnc2ccccn12)c1c(N)n(Cc2ccccc2)c(=O)[nH]c1=O | inconclusive: 35.5 µM [activator, single point] |
| CC(C)(C(N)=O)N1CCN(c2ncc(C(F)(F)F)cc2Cl)CC1 | inconclusive: 0.501 µM [inhibitor, partial curve, poor fit] |
| c1ccc2c(c1)OCC(c1nnc3sc(-c4ccc5c(c4)OCO5)nn13)O2 (configuration not stated) | inconclusive: 6.51 µM [inhibitor, full curve, poor fit] |
| CCOC(=O)c1c(C)oc2c1C(=O)c1ccccc1C2=O | inconclusive: 14.6 µM [inhibitor, partial curve, poor fit] |
| Cc1cccc(C2c3[nH]c4ccccc4c3CCN2Cc2cccn2-c2ncccn2)c1 (configuration not stated) | active: 11.2 µM |
| CCS(=O)(=O)Nc1cccc(C2=NN(C(C)=O)C(c3cccs3)C2)c1 (configuration not stated) | inconclusive: 11.2 µM [activator, partial curve, poor fit] |
| COCCN=c1scc(-c2ccc3c(c2)NC(=O)CO3)n1/N=C(\C)c1ccc(O)cc1 | inconclusive: 25.1 µM [inhibitor, single point] |
| CC(=O)c1c(C)[nH]c(C(=O)OCC(=O)Nc2ccc3c(c2)OCCO3)c1C | inconclusive: 5.62 µM [inhibitor, full curve, poor fit] |
| Cc1cccc(N(C(=O)c2sc(C)nc2C)C(C(=O)NCc2ccco2)c2ccccc2)c1 (configuration not stated) | inconclusive: 8.2 µM [inhibitor, partial curve] |
| Cc1c(N=Cc2c(O)n(Cc3ccco3)c(=O)c3ccccc23)c(=O)n(-c2ccccc2)n1C | inactive |
| Cc1ccc2c(C)cc[n+](CCCS(=O)(=O)[O-])c2c1 | inconclusive: 1.12 µM [activator, single point] |
